# Assay results taken from US9074014B2 (Ipsen Pharma S.A.S., priority 2008, dated 2015).
# Where no end group is shown, it is not given here. [ ]: non-standard residue; d: D form. The star is where a group is joined. Desaminotyrosyl = O=C(CCc1ccc(O)cc1)*; NMeY = CN[C@@H](Cc1ccc(O)cc1)C(=O)O; ΔPro = O=C(O)[C@@H]1C=CCN1; Ac6c = NC1(C(=O)O)CCCCC1; Nle = CCCC[C@H](N)C(=O)O; X1 = CCCN1C(=O)CC(*)C1=O; Ac5c = NC1(C(=O)O)CCCC1; Aib = CC(C)(N)C(=O)O
# Key:
# [1] = general procedure: Fmoc solid-phase peptide synthesis; Pre-loaded Fmoc-Gln(Trt)-Wang resin (0.59 mmole/g; Novabiochem); Rink amide MBHA resin for amides; HBTU/DIPEA (HBTU, HOBt, DIPEA for first residue); conditions: whole synthesis, analytical HPLC, 250x4.6 mm C18 (Phenomenex), 2-80% acetonitrile (0.1% TFA) over 30 minutes, scale of the general procedure 0.1 mmole
# [2] = Fmoc solid-phase peptide synthesis; Pre-loaded Fmoc-Gln(Trt)-Wang resin (0.59 mmole/g; Novabiochem); Rink amide MBHA resin for amides; HBTU/DIPEA (HBTU, HOBt, DIPEA for first residue); conditions: whole synthesis, scale 0.1 mmole
Substance,final HPLC purity [1],further results
Y[Ac6c]EGTF[Ac6c]SDYSIA[Nle]DKIHQQDFVNWLLAQK-NH2,99.90%,–
Y[Aib]EGTFISDY[Ac5c]IA[Nle]DKIHQQDFVNWLLAQK-NH2,99.90%,–
Y[Aib]EGTFISDY[Aib]IA[Ac6c]DKIHQQDFVNWLLAQKGKKNDWKHNITQ-OH,99.00%,–
Y[Aib]EGTF[Ac6c]SDYSIA[Nle]DKIHQQDFVNWLLAQKGKKNDWKHNITQ-OH,99.00%,–
YAPGTFISDY[Ac5c]IA[Ac6c]DKIHQQDFVNWLLAQKGKKNDWKHNITQ-OH,99.90%,–
H-Y[Aib]EGTF[Ac6c]SDYSIAMDKIHQQDFVNWLLAQKGKKNDWKHNIC(X1)Q-OH,–,"crude HPLC purity ([2]; analytical HPLC, 250x4.6 mm C18 (Phenomenex), 2-80% acetonitrile (0.1% TFA) over 30 minutes): 34%; crude mass [2]: approximately 500 mg; isolated mass [2]: 15 mg"
"(4Hyp^3, A6c^14)hGIP(1-42)-OH",99.90%,–
YA[ΔPro]GTFISDYSI[Aib][Nle]DKIHQQDFVNWLLAQKGKKNDWKHNITQ-OH,99.90%,–
H-[NMeY][Aib]EGTFISDY[Ac5c]IA[Nle]DKIHQQDFVNWLLAQKGKKNDWKHNITQ-OH,99.90%,–
Y[Ac5c]EGTF[Ac5c]SDYSIA[Nle]DKIHQQDFVNWLLAQK-NH2,99.90%,–
Y[Aib]EGTFISDY[Ac5c]IA[Ac6c]DKIHQQDFVNWLLAQKGKKNDWKHNITQ-OH,99.00%,–
Desaminotyrosyl-AEGTFISDYSI[Aib]MDKIHQQDFVNWLLAQKGKKNDWKHNITQ-OH,99.90%,–
Y[Aib]EGTF[Ac5c]SDYSIA[Ac5c]DKIHQQDFVNWLLAQKGKKNDWKHNITQ-OH,99.00%,–
